Among all 52,000 sequences or so, about 210 (0.4%) were called active.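 Rule for the calls: active = gene whose silencing raises cell survival under the drug, median off-target-corrected z-score across its silencing RNAs 2 or more; inactive = the rest.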 The list shows a part of the results.

The nature of this test: Resistance to Poly (ADP-Ribose) Polymerase inhibitor: Gene Identification via Genome-wide siRNA Screen. The note with it: mouse BRCA2 R2336H ES cells, olaparib, CellTiter-Glo viability; active compounds read high. The procedure, abridged: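 Mouse BRCA2 R2336H ES cells were reverse-transfected with siRNA (20 nM final), treated at 48 h with 500 nM olaparib, and read by CellTiter-Glo after 72 h. Scores: MAD-based z per siRNA, median per gene, seed off-target correction.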
(In general: In ATP-based viability assays light output follows the ATP content of the culture.)
Turning to GGAAGUAUUUCACAUGUGATT against Dctn1, the z-score is inactive: -1.78.

As to GGGUUAUGGCUGGAAUCUGTT against Slc12a9, the z-score was inactive: 2.36.

For GGACUGCACCUUUUGGCAUTT against Tlr11, the z-score is inactive: -1.12.

As for “GCAAAAUUCCUAGCCGUUUTT against C330012H03Rik”, the z-score was inactive: -0.826.

For the sequence GGUAGGUUAAAGAGACUUUTT against Msx1, the z-score was inactive: -1.72.

With GCACAAGAAAUCGAAUAUGTT against Acr, the z-score is inactive: 0.146.

CCUAAGACGUGGACUGGUGTT against D10628: the z-score was inactive: 2.44.

As for “CCUACACUGAGAUUUCAACTT against 4833432M17Rik”, the z-score is inactive: -0.309.

For the sequence GGCUCAGUCAGUGACUGUATT against Erf, the z-score is inactive: -0.856.

On to GGGAUGAAUUGGUUGUUUATT against Large, for which the z-score is inactive: 0.687.

As to GUUUUCUGAGGUGAACAGATT against AI505652, the z-score was inactive: 0.92.

In the case of GGUACCCAGCGAUCAUGCATT against Olfr1370, the z-score is inactive: -0.151.

Regarding GGUAUGAGCAACCUAAGUGTT against Smoc2, the z-score was inactive: -1.56.

For GGUGUCCUAUGUGAAGGAGTT against Trmt1, the z-score is inactive: -1.21.

As to “GGUCUCAGUUGGAAUUAUUTT against 9030416H16Rik”, the z-score is inactive: -0.957.

Take GCUAGACUUCUUUGUGCGATT against Abhd8: the z-score is inactive: -0.388.

With GCUAUUCGUUUCUUAUAACTT against Slc19a3, the z-score was inactive: 0.858.

Take GGGCAAUGGAAGAAUUCCUTT against BC030500: the z-score is inactive: 0.0082.

As for “GGAAGAGGUUCAGAACAGATT against 4930540L03Rik”, the z-score is inactive: 0.892.

For GGCUUGCCUUUUUUGCUAUTT against Olfr1404, the z-score was inactive: -0.657.

Regarding GGAUGCUUACGGGAGACGATT against Tmem9, the z-score was inactive: 0.542.

On to “GCUAGCGAUAACAAGAUUGTT against A330009G12Rik”, for which the z-score is inactive: -0.0432.

As for CCAAUCAGGUUGAAUAAGATT against BC006909, the z-score was inactive: 1.46.

Take “CCCUUAUCACAUGUGUGGATT against 5730436H21Rik”: the z-score was inactive: -0.966.

For GGAAACUUCUUCCCGGUUGTT against Mlze, the z-score was inactive: -2.89.

Turning to GAGUGCUAAGUAGGAAAGGTT against Olfr33, the z-score was inactive: -0.112.

Regarding GGUUAUUGAUGUGACGAUGTT against Rem2, the z-score is inactive: 0.147.

Turning to “GGGAUAUUGAUAGUUUUUCTT against 2410007P03Rik”, the z-score is inactive: -0.672.

For GGCUAGAAAUCAUCAAUGATT against Ntrk2, the z-score is inactive: 0.638.

Regarding GAAGUCCUGGGACUUUAUGTT against Nudt14, the z-score was inactive: -0.375.

As to GGAUGGUGAGGAGAGUUAATT against Gm466, the z-score is inactive: 1.99.

For GGUGAAGGUACGAGUAAGATT against Prkra, the z-score is inactive: -1.54.

Turning to GGAGACAGAAUGCACAUUUTT against Tff3, the z-score is inactive: -1.75.

CGCAGGACAUUUGGUUUUGTT against Ssxb2: the z-score is inactive: 1.82.

Turning to GGAAAAGAAAGGUCCUGAGTT against Klc3, the z-score was inactive: -0.119.

CGAAGAGGAUAGGCUACGCTT against Adrbk2: the z-score is inactive: 1.47.

As for CGAACCUCCAGUUAUUAGUTT against Chfr, the z-score is inactive: -0.871.

With CGACAACGAUAAGUUUGAATT against Fgg, the z-score is inactive: 0.274.

Take GCCACUUCCGCAUAAUUGGTT against Setbp1: the z-score is inactive: 0.31.

As to GGGCUUCGAUGGAACUCCUTT against Col4a3, the z-score is inactive: -0.349.

For the sequence CCCAUCCUGUAUCCACUAATT against Mlf2, the z-score is inactive: 0.951.

In the case of “GGCUUUCUGUUAAAAAGCUTT against 1110059F07Rik”, the z-score was inactive: 0.837.

GGCAUGUAAUGAAUUCACATT against Pbx3: the z-score is inactive: 1.13.

For the sequence GGAACUUAAGAACUUUCUATT against Calb1, the z-score is inactive: 1.37.

Regarding GGCCACUCAAUAUCAACGATT against Apaf1, the z-score is inactive: 0.427.

Regarding GCAUAGGAGAGACCAACAUTT against Zcchc10, the z-score is inactive: -1.75.

Consider “CCGUAUCACGCACUUAGUUTT against 2310075M15Rik”, for which the z-score is inactive: -0.835.

GCGUAAACAUUGUAACAACTT against Pkib: the z-score is inactive: -0.2.

In the case of AGUGAAGAAAUGUUUGACATT against Raet1b, the z-score is inactive: 1.94.

Turning to GCAGGGCAAUAUCUUCUACTT against Chst3, the z-score was inactive: -0.102.

Turning to “GGAAAUAUUGAUGCUGCUGTT against 4922503N01Rik”, the z-score was inactive: -1.46.

As for GAGUUCGAUGUUCAGGAGCTT against Ndrg1, the z-score is inactive: 0.452.

On to CCUCAGCGGAGAAGAUGUATT against Adora1, for which the z-score is inactive: -0.334.

In the case of “GCUAAUACUGAAAUCGAUGTT against 4931417A20”, the z-score is inactive: 0.164.

Take “GGAUUUCAUUAUCCUGUUUTT against 4932417D18Rik”: the z-score is inactive: -1.6.

With GCACCAAUAGAGUUAGAAATT against Oprk1, the z-score is inactive: -1.06.

In the case of GGCUUUCCAAAGAUUAGUCTT against Arl1, the z-score is inactive: -1.25.

In the case of GGCAACUUGAUUGUAAACUTT against Zic2, the z-score is inactive: 0.377.

Regarding “CGCGCAGAAUCAGAGCGAUTT against 6030457N17Rik”, the z-score was inactive: -0.489.

For the sequence GCUCCAAAAGUCAAGACCGTT against Safb2, the z-score is inactive: -0.442.

As for CCAACAUGAUUGAGUCUUCTT against Lrp5, the z-score is inactive: -0.812.

Take CCCUCAACCUCCAACCACATT against Ceacam1: the z-score was inactive: -2.07.

Consider GGAAUACCUUUCAUCGAUUTT against Ampd2, for which the z-score was inactive: 0.37.

As for GGAAAUUCAGCCACAACUCTT against Htr4, the z-score was inactive: 0.217.

As to CCAAACUUAAACAUGUUGUTT against Ddx21, the z-score was inactive: -0.441.

Turning to GGACAAGUACAAGAAGAAGTT against Rfxap, the z-score was inactive: 0.407.

Regarding CGACUUUCUAAGUCUCAACTT against Hyal1, the z-score is inactive: 0.679.

For GGCUUUUCCAUCGAUGAGUTT against F2rl1, the z-score is inactive: -0.879.

Regarding “GCACAUUUACAGCCUAAUGTT against 2700078E11Rik”, the z-score is inactive: -0.649.

With GGAAUAAAUAACAUUUCCCTT against Parvg, the z-score was inactive: 1.22.

On to GGAUGUCCUGAAAGAAAAATT against H2-M9, for which the z-score was inactive: -0.657.

In the case of CGACAAGGGUUCCCUAGAATT against Nkd2, the z-score is inactive: -0.513.

With “GGUUUAUUUCCAAAGUUGATT against 4732493F09Rik”, the z-score is inactive: 0.237.

Consider CCGUGAUUUAUUUGGAGUGTT against Tpt1, for which the z-score was inactive: 0.941.

As for GGAAAGAAUUGAGAUCUAATT against Rhoq, the z-score was inactive: 0.244.

On to “GCACACCAACAAUGCUUUCTT against 1810054O13Rik”, for which the z-score was inactive: 0.231.

For GGAUACAAAAAAUGAAGUCTT against Cbr3, the z-score is inactive: -0.122.

In the case of CGAUAAAUAACUCAGCAUGTT against Epha6, the z-score was inactive: -0.416.

As for “GGAAGGACAAUCAGUUCCUTT against D130067I03Rik”, the z-score was inactive: -1.36.

For the sequence GGCAAAAAAUCUCAUUUGUTT against Rock1, the z-score is inactive: -0.113.

For the sequence GGUGGAGCACAUGUUCAGCTT against BC027246, the z-score is inactive: -0.295.

For the sequence GCAUGACCAGCAGUUCCUUTT against Itsn1, the z-score is inactive: -1.41.

Consider CCAGCACUCAAUCCUGUAATT against Olfr305, for which the z-score is inactive: -1.73.

Regarding GGGAGUCAGAGUCAUGUAUTT against Mmrn2, the z-score is inactive: 0.77.

On to GGAAUACAUAGCACACGGUTT against Apba2, for which the z-score is inactive: -0.338.

With GCCACAACUGUCAACAUAGTT against Exosc8, the z-score is inactive: -0.708.

Turning to GGGCUAACCUAGGUGGACUTT against Dci, the z-score was inactive: -0.599.

Take GCACUGUCAUGAAAUAUUUTT against Mass1: the z-score was inactive: 0.623.

Take “GCGGUUCGCUGUUUGUUUCTT against 2310061J03Rik”: the z-score is inactive: 0.667.

As for CGUGGUCAGCGAGAGAGAATT against Gm110, the z-score is inactive: -0.506.

Turning to GGCUCUAAAAACAAAUGACTT against Asb4, the z-score is inactive: 0.788.

As to GGACCUUAUGGCUUUGUAGTT against Ier5, the z-score was inactive: -1.83.

As to CCAAACUUUUGUGGAACAGTT against Galnt9, the z-score is inactive: 0.858.

Turning to CCGCAUCUAUGCAGGGCAATT against Coq7, the z-score is inactive: -2.06.

In the case of GAAAAUCUUGACACUCCUGTT against Ifna9, the z-score was inactive: 1.3.

With GGAAAACUCUACCUUAUUGTT against Kif22, the z-score is inactive: 0.00536.

On to GGAGAAGAACAGAACAUGATT against Igf2, for which the z-score was inactive: -0.131.

Regarding “GGACACUGUAAGUGUCAACTT against 9130020G10Rik”, the z-score is inactive: -0.298.

Turning to “GGAAUAGUAGCUCUUACUATT against D3Ertd250e”, the z-score was inactive: 0.0487.

Consider GCAAAGCUACUGUUCACCATT against Agtr1b, for which the z-score is inactive: 1.14.

For GCCUUUAAGCAUGAUCCUGTT against Nnp1, the z-score is inactive: -0.766.

Regarding CGCAGAGAAGGUCAUUAAATT against Il1f5, the z-score was inactive: 0.825.

For GGAAGAGAUGGCCAUAUACTT against Abcb1b, the z-score is inactive: -0.278.

For the sequence GCCUUUAACUCCUACGUAGTT against Plxna4, the z-score is inactive: 1.78.

With CCUUGAAGCCUAGAAAUGATT against Zcchc11, the z-score is inactive: -1.44.

The values above are taken from PubChem BioAssay AID1347423 (Functional Genomics Laboratory (NCATS/FGL), 2020).
